Taken from: PubChem BioAssay AID686937 (Drosophila RNAi Screening Center, 2013)

Test: 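Genes in the fly needed for secretion of protein constitutively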 (primary screen)
Cells: Drosophila S2 cells expressing secreted horseradish peroxidase
Reagent: long dsRNA against Drosophila genes
Time to read-out: about 5.5 days (5 days dsRNA, then 12 h reporter induction)
Challenge: reporter expression induced after 5 days of dsRNA, read 12 h later; inducer not stated
Measured: 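Chemiluminescent measurement of peroxidase in the medium 12 h after reporter induction, following 5 days of dsRNA, given as a z-score per plate; higher means more secretion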
Direction: z-score: higher = more reporter secreted into medium
The screen tested about 23,000 reagents; this is a random part of those that have a named target and a result. 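Reduced-secretion tags in replicate 1 do not always agree with the z-scores; no criterion for assigning the tags was given.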 Names joined by + are all predicted targets of the reagent. Not stated in the record: the amount of reagent.

gene | dsRNA | z-score, replicate 1 | z-score, replicate 2 | z-score, replicate 3 | z-score, replicate 4 | phenotype, replicate 1
Nepl19 (GeneID 43411) | DRSC14875 | 0.57 | 0.46 | – | – | –
MICU3 (GeneID 42357) | DRSC13381 | -0.01 | 0.27 | – | – | –
MICU3 (GeneID 42357) | DRSC15613 | 0.36 | 0.36 | – | – | –
thw (GeneID 40868) | DRSC12552 | 0.3 | 0.31 | – | – | –
CG5160 (GeneID 34015) | DRSC02821 | 0.15 | 0.37 | – | – | –
dtn (GeneID 31555) | DRSC17939 | 0.4 | 0.52 | – | – | –
Egfr (GeneID 37455) | DRSC03871 | 0.09 | -0.28 | – | – | –
Egfr (GeneID 37455) | DRSC04613 | -0.03 | 0.03 | – | – | –
CG13722 (GeneID 38555) | DRSC08331 | 0.45 | 0.59 | – | – | –
CG13722 (GeneID 38555) | DRSC21616 | -0.43 | -0.02 | – | – | –
PKD (GeneID 42203) | DRSC16200 | 0.35 | 0.26 | – | – | –
GC2 (GeneID 41449) | DRSC14476 | -0.1 | 0.15 | – | – | –
CG5404 (GeneID 41901) | DRSC15793 | 0.23 | 0.29 | 0.95 | 0.69 | –
t-Grip91 (GeneID 34931) | DRSC01506 | 0.42 | 0.41 | – | – | –
CG34167 (GeneID 5740831) | DRSC01525 | 0.1 | 0.21 | – | – | –
Uqcc1 + CG9948 | DRSC09690 | -0.24 | 0.14 | – | – | –
obst-B (GeneID 34336) | DRSC01987 | 0.38 | 0.35 | – | – | –
CG9727 (GeneID 40794) | DRSC12585 | 0.47 | 0.33 | – | – | –
E(spl)m3-HLH (GeneID 43156) | DRSC16694 | -1.65 | -0.58 | – | – | reduced secretion
CG34353 (GeneID 5740590) | DRSC14493 | 0.5 | 0.48 | – | – | –
CG34353 (GeneID 5740590) | DRSC14517 | 0.4 | 0.24 | – | – | –
CG34353 (GeneID 5740590) | DRSC14563 | 0.45 | 0.63 | – | – | –
CG34353 (GeneID 5740590) | DRSC15837 | 0.31 | 0.5 | – | – | –
CG34353 (GeneID 5740590) | DRSC22429 | -0.34 | -0.27 | – | – | –
lobo (GeneID 4379864) | DRSC14662 | 0.34 | 0.3 | – | – | –
lobo (GeneID 4379864) | DRSC14663 | 0.12 | 0.22 | – | – | –
CG14286 (GeneID 42280) | DRSC14767 | 0.42 | 0.28 | – | – | –
CG10749 (GeneID 39470) | DRSC09798 | 0.36 | 0.41 | – | – | –
CG10752 (GeneID 39467) | DRSC09799 | 0.31 | 0.21 | – | – | –
Rpt1 (GeneID 35701) | DRSC07542 | -5.09 | -4.26 | – | – | reduced secretion
yps (GeneID 39377) | DRSC11411 | 0.73 | 0.5 | – | – | –
Jhbp14 (GeneID 34728) | DRSC01988 | 0.4 | 0.37 | – | – | –
CG34430 (GeneID 5740489) | DRSC06499 | 0.3 | 0.26 | – | – | –
mirr (GeneID 39441) | DRSC11369 | 0.58 | 0.88 | – | – | –
CG42795 (GeneID 41252) | DRSC12772 | 0.45 | 0.52 | – | – | –
CG42795 (GeneID 41252) | DRSC15533 | 0.29 | -0.25 | – | – | –
HLH3B (GeneID 31249) | DRSC18669 | 0.2 | 0.3 | – | – | –
CG32201 (GeneID 317911) | DRSC22452 | -0.12 | 0.12 | – | – | –
Tbc1d8-9 (GeneID 40361) | DRSC11820 | 0.23 | 0.25 | – | – | –
AANATL3 (GeneID 35285) | DRSC02089 | -0.05 | 0.2 | – | – | –
CG5676 (GeneID 34368) | DRSC02875 | -0.11 | -0.06 | – | – | –
CG43666 + CG43667 + CG43668 | DRSC03829 | -1 | 0.34 | – | – | –
CG43666 + CG43667 + CG43668 | DRSC04233 | 0.13 | 0.38 | – | – | –
Pgant3 (GeneID 35627) | DRSC05942 | 0.26 | -0.15 | – | – | –
snsl (GeneID 33696) | DRSC00543 | 0.4 | 0.32 | – | – | –
CG4004 (GeneID 32226) | DRSC19791 | 0.35 | 0.62 | – | – | –
CG4004 (GeneID 32226) | DRSC19882 | 0.34 | 0.61 | – | – | –
CG9682 (GeneID 43602) | DRSC16536 | 0.22 | 0.39 | – | – | –
Ir93a (GeneID 42471) | DRSC15212 | 0.32 | 0.28 | – | – | –
Ir93a (GeneID 42471) | DRSC15213 | 0.32 | 0.39 | – | – | –
CG5217 (GeneID 42311) | DRSC15740 | 0.4 | 0.55 | – | – | –
CG11790 (GeneID 42999) | DRSC14390 | 0.43 | 0.51 | – | – | –
CG32188 (GeneID 317901) | DRSC09510 | 0.51 | 0.39 | – | – | –

Entries listed so far whose target name starts with I or i:
gene | dsRNA | z-score, replicate 1 | z-score, replicate 2 | z-score, replicate 3 | z-score, replicate 4 | phenotype, replicate 1
Ir93a (GeneID 42471) | DRSC15212 | 0.32 | 0.28 | – | – | –
Ir93a (GeneID 42471) | DRSC15213 | 0.32 | 0.39 | – | – | –

Additional results follow.
gene | dsRNA | z-score, replicate 1 | z-score, replicate 2 | z-score, replicate 3 | z-score, replicate 4 | phenotype, replicate 1
CngA (GeneID 36806) | DRSC06580 | -0.09 | -0.17 | – | – | –
CngA (GeneID 36806) | DRSC07362 | -0.13 | -0.19 | – | – | –
GILT2 (GeneID 42788) | DRSC14196 | 0.32 | 0.25 | – | – | –
dsb (GeneID 38252) | DRSC08407 | -2.72 | -2.14 | – | – | reduced secretion
dsb (GeneID 38252) | DRSC08542 | 0.37 | 0.33 | – | – | –
Nlg1 (GeneID 40913) | DRSC12485 | 0.17 | 0.4 | – | – | –
Nlg1 (GeneID 40913) | DRSC12532 | -0.01 | -0.31 | – | – | –
Nlg1 (GeneID 40913) | DRSC12533 | -0.12 | 0.4 | – | – | –
Nlg1 (GeneID 40913) | DRSC12539 | 0.09 | 0.33 | – | – | –
Usp2 (GeneID 33132) | DRSC20590 | 0.3 | 0.25 | – | – | –
Usp2 (GeneID 33132) | DRSC20632 | 0.41 | 0.56 | – | – | –
Usp2 (GeneID 33132) | DRSC20633 | -0.34 | -0.45 | – | – | –
nrv3 (GeneID 35408) | DRSC03097 | 0.85 | 0.71 | – | – | –
Unr (GeneID 38963) | DRSC10761 | 0.01 | -0.67 | – | – | –
Unr (GeneID 38963) | DRSC22959 | -0.32 | -0.22 | – | – | –
CG7130 (GeneID 40450) | DRSC11797 | 0.42 | 0.25 | – | – | –
CG11113 (GeneID 35659) | DRSC06039 | 0.26 | 0.22 | – | – | –
CG31999 (GeneID 43777) | DRSC17131 | 0.13 | 0.24 | – | – | –
CG31999 (GeneID 43777) | DRSC17133 | 0.23 | 0.27 | – | – | –
fry (GeneID 39122) | DRSC08993 | -0.05 | 0.35 | – | – | –
fry (GeneID 39122) | DRSC10172 | 0.29 | 0.37 | – | – | –
fry (GeneID 39122) | DRSC10709 | 0.37 | 0.44 | – | – | –
fry (GeneID 39122) | DRSC10712 | 0.67 | 0.27 | – | – | –
CG32228 (GeneID 326202) | DRSC22296 | -0.88 | -0.2 | – | – | –
CG13130 (retired record) (GeneID 50439) | DRSC02226 | -1.3 | -0.76 | – | – | –
CG42445 (GeneID 8674111) | DRSC10858 | 0.21 | 0.16 | – | – | –
CG1598 (GeneID 35690) | DRSC06598 | 0.31 | 0.2 | – | – | –
CG32548 (GeneID 32826) | DRSC19627 | -0.08 | -0.66 | – | – | –
CG32548 (GeneID 32826) | DRSC19982 | 0.1 | 0.12 | – | – | –
